Measured values from PubChem BioAssay (EPA / NIEHS).
This list was built around the results that the source calls inconclusive (neither active nor inactive); the mix of calls is not that of the screen. Potencies of inconclusive entries are doubtful fits and often do not repeat. More than one record can exist for a structure, and the calls need not agree. Active and inactive are the calls of the source. Rule for the calls: active = hit-call score of the fitted dose curve at least 0.9, where 1 is the maximum; inconclusive = response in the unintended direction; inactive = score below 0.9.

assay: CCTE_Mundy_HCI_hNP1_Pro_ResponderAvgInten: CCTE's Proliferation Assay in human neuroprogenitor cells, Mundy Lab (AID 2284224);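 note: human neural progenitor cells hNP1 derived from WA09 embryonic stem cells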
How it was run: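 Proliferation was scored as BrdU labelling intensity in human neural progenitors derived from WA09 embryonic cells, measured 26.25 hours after chemical dosing. Activity was fitted relative to DMSO.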

SMILES | AC50 | outcome
CC1(C)C(C=C(Cl)Cl)C1C(=O)OC(C#N)c1cccc(Oc2ccccc2)c1 (stereo not drawn) | inconclusive: 15 µM | –
O=C1C2(Cl)C3(Cl)C4(Cl)C(Cl)(Cl)C5(Cl)C3(Cl)C1(Cl)C5(Cl)C24Cl (stereo not drawn) | active: 21.7 µM | –
C=C(C)C(=O)[O][Sn]([CH2]CCC)([CH2]CCC)[CH2]CCC | active: 0.249 µM | –
Cc1c(COC(=O)[C@@H]2[C@H](/C=C(\Cl)C(F)(F)F)C2(C)C)cccc1-c1ccccc1 | active: 3.68 µM | –
CO/C=C(/C(=O)OC)c1ccccc1COc1cccc(C(F)(F)F)n1 | active: 86.9 µM | –
CCC[CH2][Sn]([Cl])([CH2]CCC)[CH2]CCC | active: 0.188 µM | –
CN/C(=N\[N+](=O)[O-])NCc1cnc(Cl)s1 | inconclusive: 15 µM | –
C=CC1(C)OC(=O)N(c2cc(Cl)cc(Cl)c2)C1=O (stereo not drawn) | – | inactive
CC(C)(C)c1ccc(CSc2cnn(C(C)(C)C)c(=O)c2Cl)cc1 | active: 4.85 µM | –
O=[N+]([O-])/N=C1\NCCN1Cc1ccc(Cl)nc1 | – | inactive
CNC(=O)Oc1cccc2c1OC(C)(C)C2 | inconclusive: 49.6 µM | –
CNC(=O)Oc1cccc2ccccc12 | inconclusive: 15 µM | –
OCC(F)(F)OC(F)(F)C(F)(F)OC(F)(F)C(F)(F)OC(F)(F)F | inconclusive: 15 µM | –
NS(=O)(=O)C(F)(F)C(F)(F)C(F)(F)C(F)(F)C(F)(F)C(F)(F)C(F)(F)C(F)(F)F | inconclusive: 0.0001 µM | –
C=CCC1=C(C)C(OC(=O)C2C(C=C(C)C)C2(C)C)CC1=O (stereo not drawn) | inconclusive: 15 µM | –
CCC(C)(C)C(=O)OC1=C(c2ccc(Cl)cc2Cl)C(=O)OC12CCCCC2 | – | inactive
CC1(c2ccc(Oc3ccccc3)cc2)OC(=O)N(Nc2ccccc2)C1=O (stereo not drawn) | – | inactive
COP(=S)(OC)SCn1nnc2ccccc2c1=O | inconclusive: 15 µM | –
CC1(C)C(C=C(Cl)Cl)C1C(=O)OC(C#N)c1ccc(F)c(Oc2ccccc2)c1 (stereo not drawn) | – | inactive
CO/C=C(/C(=O)OC)c1ccccc1Oc1cc(Oc2ccccc2C#N)ncn1 | inconclusive: 71.6 µM | –
C=CC(=O)OCC(F)(F)C(F)F | – | inactive
CNC(=O)ON=CC(C)(C)SC | inconclusive: 0.000312 µM | –
O=[N+]([O-])c1cc(C(F)(F)F)c(Cl)c([N+](=O)[O-])c1Nc1ncc(C(F)(F)F)cc1Cl | active: 1.89 µM | –
C[N+]1(C)CCCCC1 | inconclusive: 15 µM | –
CCOP(=S)(OCC)SCSCC | inconclusive: 50 µM | –
COP(=S)(OC)Oc1nc(Cl)c(Cl)cc1Cl | inconclusive: 0.104 µM | –
CSC1=N[C@@](C)(c2ccccc2)C(=O)N1Nc1ccccc1 | – | inactive
CO/N=C(/C(=O)OC)c1ccccc1COc1ccccc1C | – | inactive
CS(=O)(=O)c1ccc(C(=O)C2C(=O)CCCC2=O)c([N+](=O)[O-])c1 | inconclusive: 0.297 µM | –

assay: CCTE_Mundy_HCI_Cortical_NOG_NeuronCount: CCTE's Neurite Outgrowth Assay in rat cortical cells for Neuron Count, Mundy Lab (AID 2284236);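 note: neurons counted by imaging betaIII-tubulin and Hoechst stained cortical cells; cells exposed to compound for about 48 hours before fixation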
How it was run: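 Read-out: neuron number by high-content imaging of betaIII-tubulin (Alexa Fluor-488) and Hoechst-labelled rat primary cortical cells.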

SMILES | AC50 | outcome
CC1(C)C(C=C(Cl)Cl)C1C(=O)OC(C#N)c1cccc(Oc2ccccc2)c1 (stereo not drawn) | inconclusive: 0.165 µM | –
Cc1c(COC(=O)[C@@H]2[C@H](/C=C(\Cl)C(F)(F)F)C2(C)C)cccc1-c1ccccc1 | active: 21.2 µM | –
CO/C=C(/C(=O)OC)c1ccccc1COc1cccc(C(F)(F)F)n1 | active: 2.81 µM | –
CN/C(=N\[N+](=O)[O-])NCc1cnc(Cl)s1 | – | inactive
C=CC1(C)OC(=O)N(c2cc(Cl)cc(Cl)c2)C1=O (stereo not drawn) | – | inactive
CC(C)(C)c1ccc(CSc2cnn(C(C)(C)C)c(=O)c2Cl)cc1 | active: 0.0982 µM | –
O=[N+]([O-])/N=C1\NCCN1Cc1ccc(Cl)nc1 | inconclusive: 0.000537 µM | –
CNC(=O)Oc1cccc2c1OC(C)(C)C2 | – | inactive
CNC(=O)Oc1cccc2ccccc12 | inconclusive: 0.00389 µM | –
C=CCC1=C(C)C(OC(=O)C2C(C=C(C)C)C2(C)C)CC1=O (stereo not drawn) | inconclusive: 14.8 µM | –
CCC(C)(C)C(=O)OC1=C(c2ccc(Cl)cc2Cl)C(=O)OC12CCCCC2 | inconclusive: 0.000976 µM | –
CC1(c2ccc(Oc3ccccc3)cc2)OC(=O)N(Nc2ccccc2)C1=O (stereo not drawn) | active: 23.8 µM | –
COP(=S)(OC)SCn1nnc2ccccc2c1=O | – | inactive
CC1(C)C(C=C(Cl)Cl)C1C(=O)OC(C#N)c1ccc(F)c(Oc2ccccc2)c1 (stereo not drawn) | active: 49.9 µM | inactive
CO/C=C(/C(=O)OC)c1ccccc1Oc1cc(Oc2ccccc2C#N)ncn1 | active: 4.67 µM | –
CNC(=O)ON=CC(C)(C)SC | inconclusive: 0.000847 µM | –
O=[N+]([O-])c1cc(C(F)(F)F)c(Cl)c([N+](=O)[O-])c1Nc1ncc(C(F)(F)F)cc1Cl | active: 1.94 µM | –
C[N+]1(C)CCCCC1 | inconclusive: 0.00151 µM | –
CCOP(=S)(OCC)SCSCC | inconclusive: 0.00113 µM | –
COP(=S)(OC)Oc1nc(Cl)c(Cl)cc1Cl | active: 15 µM | –
CSC1=N[C@@](C)(c2ccccc2)C(=O)N1Nc1ccccc1 | – | inactive
CO/N=C(/C(=O)OC)c1ccccc1COc1ccccc1C | active: 13.4 µM | –
CS(=O)(=O)c1ccc(C(=O)C2C(=O)CCCC2=O)c([N+](=O)[O-])c1 | inconclusive: 0.0188 µM | –
